## Percent effect of library compounds

By UniProt entry, the sequences of proteins in these tests, tags left out. Residues count along the entry.
UniProt A4I591, 1-473: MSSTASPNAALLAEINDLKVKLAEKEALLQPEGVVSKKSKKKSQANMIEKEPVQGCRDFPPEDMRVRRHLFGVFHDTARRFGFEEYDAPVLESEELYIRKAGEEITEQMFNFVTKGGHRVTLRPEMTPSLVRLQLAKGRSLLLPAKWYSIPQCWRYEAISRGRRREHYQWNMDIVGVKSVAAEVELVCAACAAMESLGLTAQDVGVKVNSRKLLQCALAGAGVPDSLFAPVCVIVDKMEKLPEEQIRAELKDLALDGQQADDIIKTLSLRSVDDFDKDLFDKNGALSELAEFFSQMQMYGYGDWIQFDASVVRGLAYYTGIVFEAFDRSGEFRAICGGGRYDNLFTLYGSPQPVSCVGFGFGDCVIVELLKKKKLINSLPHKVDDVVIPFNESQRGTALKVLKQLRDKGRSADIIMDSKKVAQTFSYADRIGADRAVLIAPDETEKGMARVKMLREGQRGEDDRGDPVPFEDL
UniProt P9WFT3, whole entry: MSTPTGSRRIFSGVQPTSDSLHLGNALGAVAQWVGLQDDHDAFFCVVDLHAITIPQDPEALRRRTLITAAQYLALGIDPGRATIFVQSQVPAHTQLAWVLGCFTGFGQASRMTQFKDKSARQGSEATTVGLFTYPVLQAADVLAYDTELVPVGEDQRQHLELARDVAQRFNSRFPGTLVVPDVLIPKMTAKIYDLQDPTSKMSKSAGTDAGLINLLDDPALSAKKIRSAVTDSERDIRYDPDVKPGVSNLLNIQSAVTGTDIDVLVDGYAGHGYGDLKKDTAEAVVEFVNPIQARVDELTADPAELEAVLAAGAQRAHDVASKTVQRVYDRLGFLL

LiHisRS: 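Enzyme assay of histidyl-tRNA synthetase; the read-out is not stated. Target: Histidine-tRNA ligase, Leishmania infantum (UniProt A4I591). Compounds at 30 µM. Higher reads as stronger inhibition (inferred: compounds with an IC50 in retests scored well above the rest). The assay is labelled LdHisRS but filed under L. infantum. Of about 69,000 compounds tested this way, about 410 (0.6%) reached 50% or more in at least one test.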
T. brucei: 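Whole-parasite assay of Trypanosoma brucei over 72 hours; the read-out is not stated. Compounds at 30 µM. Higher reads as stronger inhibition (inferred: compounds with an IC50 in retests scored well above the rest). Values scatter widely below zero; nearly all retest evidence comes from the higher of the two concentrations used. About 64,000 compounds were tested under these conditions; 1.5% (about 940) showed 50% or more at least once.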
MtTrpRS: 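Enzyme assay of tryptophanyl-tRNA synthetase; the read-out is not stated. Target: Tryptophan-tRNA ligase, Mycobacterium tuberculosis (UniProt P9WFT3). Concentration: 10 µM. Direction is not recorded; retested compounds ran higher, which suggests that high means inhibition. Size under these conditions: about 65,000 compounds, about 64 of them at 50% or above in at least one test.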

The filed quantity is “Percent Effect” (%). The controls that fix the scale are not given in the record; negative values are as filed. The compounds are a random part of those screened. A dash means the value is not listed here; it may have been measured.

SMILES | LiHisRS | T. brucei | MtTrpRS
Cc1nc(CCCN2CCOCC2)n(Cc2ccc(F)cc2)n1 | -0.8333 | - | -0.5789
FC(F)(F)c1ccnc(N2C[C@H]3CCN(c4cccnc4)C[C@H]3C2)n1 | 35.9 | - | 2.213
Cc1nc(N2CCCC2)nc(C)c1NS(C)(=O)=O | 1.739 | 3.313 | -3.571
O=C(O)C(F)(F)F.O=C(O)C(F)(F)F.[H][C@@]12CO[C@@H](CN(C)C)[C@]1([H])CCN(Cc1ccc(C)o1)C2 | - | 1.723 | -
[H][C@@]12CN(Cc3cccnc3)C[C@]1([H])CN(C(=O)c1cccn1C)C2 | - | -19.2 | -
Cc1nc(NC(=O)NC2CC(=O)N(C)C2)nn1C(C)C (stereo not given) | 13.43 | -1.998 | 2.639
O=C(NCc1nnc2n1CCC2)c1ccc(Br)s1 | 20 | -48.45 | -1.211
O=C(NC[C@H]1OC[C@@H]2CCN(c3ccccn3)C[C@@H]21)c1ccco1 | -7.895 | - | 3.787
NC(=O)c1nnn(-c2ccc(Cl)cc2)n1 | 9.589 | 16.58 | 9.669
CSCc1ccc(N2CCC(C(O)Cc3ccccc3)CC2)nc1 (stereo not given) | -13.43 | -13.35 | 17.93
Cc1noc(C2CCCN(C(=O)c3cccc(Cl)c3)C2)n1 (stereo not given) | 1.667 | -44.55 | -0.5942
COc1cncc(-n2nc(C)c(CC(C)=O)c2C)c1 | 34.18 | 4.162 | 2.449
CN(C)C(=O)CC1CC2(CCN(Cc3ccco3)CC2)c2ccccc21 (stereo not given) | 15.38 | - | 4.841
O=C(CC1CCCC1)NCCn1ccc(-c2ccccn2)n1 | 14.56 | 33.14 | -1.433
CN1CC2(CCN(Cc3ccoc3)CC2)COc2ccccc2S1(=O)=O.O=C(O)C(F)(F)F | - | -30.44 | -
Cc1nn(C)cc1S(=O)(=O)N(C)[C@@H]1CCC[C@@H](n2ccnc2)[C@@H]1O | 14.29 | -3.285 | 15.15
CC(C)CN1CC[C@@H]2[C@@H]1CCN2S(=O)(=O)c1cccs1 | 17.48 | - | 0.08085
O=C(c1ccccn1)N1C[C@@H](OCc2cccnc2)[C@H]2OCCC[C@@H]21 | 12.73 | - | -2.616
CC(NCC1CCN(CCO)CC1)c1cccc(Cl)c1 (stereo not given) | 16.44 | 20.97 | 0
CC(C)c1nnc(CN(C)Cc2ccccc2-c2ccccc2)o1 | 12.64 | -34.62 | 2.365
CCN(c1ccc(C(=O)N2CCCC2c2cnn(C)c2)cn1)C(C)C (stereo not given) | -0.8929 | 0.5544 | 64.78
COCc1cccc(NC(=O)NCc2ncc(C)c(OC)c2C)c1 | 6.452 | -28.98 | 2.179
CCc1noc(CN(C)CCC(=O)Nc2ccc(Cl)cc2)n1 | 20.69 | -12.76 | -2.319
CNC(=O)c1ccc(-n2c(COCC(=O)O)nc3c(C)cccc32)o1 | 16.67 | -0.9087 | 2.122
COc1ccc(F)cc1NC(=O)NCC1(CN2CCOCC2)CC1 | 13.68 | -2.287 | 2.213
COC(=O)c1cc(C(=O)N2CCCCC2C)n(-c2ccccc2)n1 (stereo not given) | 12.5 | -16.93 | 29.94
Cc1cc(NC(=O)C(C#N)Cc2cnn(C)c2C)no1 (stereo not given) | 7.692 | -3.051 | -0.154
O=C(Nc1cc(F)ccc1OCC1CCCO1)N1CCSCC1 (stereo not given) | 5.769 | - | -1.16
c1ccc(CCc2n[nH]c(CCN3CCCCC3)n2)cc1 | 14.29 | -13.29 | 8.886
Cc1csc2ncnc(N3CCC(Cn4cc(C(C)(C)O)nn4)CC3)c12 | 14.46 | -13.81 | -4.549
CC(C)c1ncc2c(n1)CN(Cc1ccc(C(N)=O)cc1)CC2 | 24.8 | -4.209 | 5.346
Cc1ccc(C(=O)N2C[C@@H]3CC[C@H](C2)N(Cc2ccccc2)C3)cn1 | -1.064 | - | -0.8834
NCC(=O)N1CCC(c2cccc(Oc3ccccc3)n2)CC1 | 25.53 | - | -2.732
CCNC(=O)N(C)C(c1cccnc1)C(C)C (stereo not given) | 7.692 | 2.93 | -5.146
COc1ccnc(N(C)Cc2ccccc2O)n1 | 6.838 | 9.631 | -1.499
Cc1cccc(-c2nc(C)nn2CN2CCN(c3ncccn3)CC2)c1 | 5.479 | -91.59 | -5.202
CC(C)CN1CCC2(C1)CN(c1ncccn1)C2.O=C(O)C(F)(F)F | - | -1.682 | -
CCc1ocnc1C(=O)N1CCC2(CCCN(CC(C)(C)C)C2=O)C1 (stereo not given) | 5.882 | -17.56 | -0.1514
COC(=O)N1CCN(C(=O)c2ccc(C)c(N3CCNC3=O)c2)CC1 | 3.125 | -47.62 | -0.5659
Cc1cnn(CCCNC(=O)N2CCCCC(N3CCCC3)C2)c1 (stereo not given) | 26.4 | 3.065 | 0.9434
COC[C@@]12CCC[C@@H]1CN(C(=O)N1CCCC1)C2 | 1.923 | - | -
CCS(=O)(=O)N1CCC(NC(=O)c2cc(C)ccc2O)CC1 | 19.44 | -1.227 | -1.738
[H][C@]12CC[C@]([H])(CN(C(=O)c3ccccn3)C1)N(C(=O)CCC1CCCC1)C2 | - | -24.62 | -
COc1ccc(Cl)cc1NCCC(=O)NCCNc1cnccn1 | 16.07 | -8.845 | -6.088
CN1N=C(C(=O)N2CCCN(c3ncccc3C#N)CC2)CCC1=O | 13.7 | -44.89 | -0.7435
COC(=O)C1CCCN1C(=O)c1ccc(Br)cc1F (stereo not given) | 1.571 | -65.33 | 3.179
CCC(C(=O)Nc1ccc(-c2nc(C)n[nH]2)cc1)N1CCCC1=O (stereo not given) | 15.79 | -35.2 | 2.031
Cc1csc(CN2CCC[C@]3(C[C@@H](OCC4CC4)CO3)C2)n1 | 26.6 | - | 8.539
Cn1ccc(C(=O)N2CCOC3(COCCN(CC4CC4)C3)C2)n1.O=C(O)C(F)(F)F (stereo not given) | - | -2.06 | -
CNc1cc(C2CN(Cc3cccnc3NC)CCO2)nc(C)n1 (stereo not given) | 2.857 | -2.533 | -1.48

For reference, 3 entries once more:

SMILES,LiHisRS,T. brucei,MtTrpRS
Cc1nn(C)cc1S(=O)(=O)N(C)[C@@H]1CCC[C@@H](n2ccnc2)[C@@H]1O,14.29,-3.285,15.15
COCc1cccc(NC(=O)NCc2ncc(C)c(OC)c2C)c1,6.452,-28.98,2.179
O=C(CC1CCCC1)NCCn1ccc(-c2ccccn2)n1,14.56,33.14,-1.433

Source: ChEMBL document CHEMBL3988442, “University of Dundee, Small-Polar-MMV Screening Library” (2021).